This is one part of the list.
Tests used:
Assay in all cases: protein microarray (ProtoArray v5.0), streptavidin-Alexa Fluor 647
Conditions in all cases: 3'-biotin; 20 mM Tris (pH 7.5), 5 mM MgCl2, 100 mM KCl, 0.1% Tween-20, A/T-rich and random oligonucleotide blockers; temperature not stated; high values mean tight binding
[1] = tested on: DNA repair protein XRCC4 (human)
[2] = tested on: DNA replication complex GINS protein PSF3 (human)
[3] = tested on: DNA-binding protein Ikaros (human)
[4] = tested on: DNA-directed RNA polymerase II subunit RPB11-a (human)
[5] = tested on: DNA-directed RNA polymerase II subunit RPB11-b1 (human)
[6] = tested on: DNA-directed RNA polymerase III subunit RPC9 (human)
[7] = tested on: DNA-directed RNA polymerases I, II, and III subunit RPABC5 (human)
[8] = tested on: DNAI2 (human)
[9] = tested on: DNAJB2 (human)
[10] = tested on: DNAJC12 (human)

GGGAGGCTGAGGCAGG [G4-1 biotinylated (PQS2)]
binding signal [1]: -0.29 z-score
binding signal [2]: -0.359 z-score
binding signal [3]: -0.269 z-score
binding signal [4]: -0.305 z-score
binding signal [5]: -0.283 z-score
binding signal [6]: -0.317 z-score
binding signal [7]: -0.278 z-score
binding signal [8]: -0.326 z-score
binding signal [9]: -0.305 z-score
binding signal [10]: -0.347 z-score

Source: paper PMC5996148
